Data source: PubChem BioAssay AID1259306 (Sanger Institute, 2017)
In all, the deposit lists 794 reagents; below is an unselected part. Over the whole deposit, 11 (1.4%) were called active. 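Calls reflect knock-down alone; synergy scores play no part, so knock-downs synergising with a drug can be called no change.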 Further read-outs or replicates are left out here. Not stated in the record: the amount of reagent, the time to read-out.

- Purpose: 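Kinase-wide siRNA screen for partners of targeted drugs in colorectal cancer cells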 (primary screen)
- Cells: human SNU-C5 colorectal cancer cells
- Reagents: siRNA pool against human genes
- Treatment: DMSO vehicle alone, or one anchor drug: BYL719 at 1 µM, cetuximab at 5 µg/ml or trametinib at 10 nM, given 24 h into the assay
- Measurement: 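Viability versus non-targeting pool averaged across replicates, given as fraction and robust z-score, and synergy scores for BYL719, cetuximab or trametinib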
- Direction: robust z-score, knock-down alone: higher = more viable cells
- Rule for the call: 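Called essential when the robust z-score for knock-down alone is below -3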
- Calls: active = essential (knock-down alone); inactive = no change alone

Which result is listed for VRK3 [SID135620981]?
robust z-score, knock-down alone: 0.172; Outcome: inactive

With UCKL1 [SID152149527], what was measured?
robust z-score, knock-down alone: 0.989; Outcome: inactive

With ETNK1 [SID152152739], how do the results read?
robust z-score, knock-down alone: 0.528; Outcome: inactive

Which result is listed for LRRK1 [SID135620970]?
robust z-score, knock-down alone: 0.579; Outcome: inactive

How did the screen score MAP3K3 [SID56478641]?
robust z-score, knock-down alone: 0.0655; Outcome: inactive

With SRPK3 [SID135620894], what does the deposit list?
robust z-score, knock-down alone: 0.989; Outcome: inactive

How did the screen score CDK15 [SID56478852]?
robust z-score, knock-down alone: 0.368; Outcome: inactive

With MAP4K1 [SID56478699], what does the deposit list?
robust z-score, knock-down alone: -0.521; Outcome: inactive

With CMPK1 [SID56478766], how do the results read?
robust z-score, knock-down alone: 0.611; Outcome: inactive

With PI4KB [SID135621252], what does the deposit list?
robust z-score, knock-down alone: 0.989; Outcome: inactive

How did the screen score ARID1A [SID152147093]?
robust z-score, knock-down alone: -0.597; Outcome: inactive

For MAP3K4 [SID152151893], how do the results read?
robust z-score, knock-down alone: 0.744; Outcome: inactive
